For at least one entry, the source does not settle the construct or the ends of the probe. Tags and fusion partners may be left off the protein sequences shown.
Molecular target: T1, CmAreA (GATA zinc finger transcription factor) (Cordyceps militaris) (UniProt G3JBM2)
T1 sequence (looked up, limits assumed): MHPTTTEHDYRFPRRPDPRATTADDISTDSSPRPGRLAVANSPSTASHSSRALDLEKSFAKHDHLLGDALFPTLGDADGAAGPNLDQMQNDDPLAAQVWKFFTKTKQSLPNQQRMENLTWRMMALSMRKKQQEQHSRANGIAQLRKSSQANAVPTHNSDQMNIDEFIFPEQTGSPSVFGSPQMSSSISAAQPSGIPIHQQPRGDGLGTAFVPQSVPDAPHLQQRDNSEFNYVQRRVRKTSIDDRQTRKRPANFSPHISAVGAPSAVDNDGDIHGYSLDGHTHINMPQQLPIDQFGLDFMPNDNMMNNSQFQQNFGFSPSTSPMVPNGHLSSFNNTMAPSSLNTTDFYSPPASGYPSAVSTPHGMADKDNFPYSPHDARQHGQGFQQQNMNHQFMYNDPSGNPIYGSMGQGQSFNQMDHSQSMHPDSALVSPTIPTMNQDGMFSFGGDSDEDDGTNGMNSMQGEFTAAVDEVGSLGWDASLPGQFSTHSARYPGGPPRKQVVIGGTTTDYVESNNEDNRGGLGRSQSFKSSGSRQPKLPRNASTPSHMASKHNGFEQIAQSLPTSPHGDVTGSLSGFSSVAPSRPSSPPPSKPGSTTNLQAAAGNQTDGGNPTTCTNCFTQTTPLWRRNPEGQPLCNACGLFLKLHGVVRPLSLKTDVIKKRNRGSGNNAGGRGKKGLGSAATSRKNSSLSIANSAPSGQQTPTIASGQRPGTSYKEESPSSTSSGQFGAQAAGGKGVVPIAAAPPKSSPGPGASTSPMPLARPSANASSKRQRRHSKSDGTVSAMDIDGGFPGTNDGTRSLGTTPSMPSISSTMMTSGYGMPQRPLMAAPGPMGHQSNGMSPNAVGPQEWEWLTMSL
Assay: EMSA
Conditions: Chemiluminescent EMSA Kit (Beyotime), manufacturer's manual, pH and temperature not stated, recombinant protein, protein details: 6xHis

Sequence | binding result (CmAreA 400-3000 ng titration, 800 ng in competition assay) | binding result (800 ng CmAreA)
TTCGCCTTCTCACCATCCCAAGATACTCCCATCAGCCAAGATGCAA (double strand) [Biotin probe 1 (Cmhyd1 promoter GATA box)] | binds | –
GAGGACAACGATCCTCTCCTTGATACTCACAGGCCTGACTTCAAAC (double strand) [Biotin probe 2 (Cmhyd1 promoter GATA box)] | – | binds

— PMC8400498
